For 42 sequences, binding signal results are on record in article PMC7819943, “Rice protein-binding microarrays: a tool to detect cis-acting elements near promoter regions in rice”.

Sequences of proteins named here, by UniProt entry; tags and fusion partners are left off.
UniProt Q0JBA9, entry or part of it: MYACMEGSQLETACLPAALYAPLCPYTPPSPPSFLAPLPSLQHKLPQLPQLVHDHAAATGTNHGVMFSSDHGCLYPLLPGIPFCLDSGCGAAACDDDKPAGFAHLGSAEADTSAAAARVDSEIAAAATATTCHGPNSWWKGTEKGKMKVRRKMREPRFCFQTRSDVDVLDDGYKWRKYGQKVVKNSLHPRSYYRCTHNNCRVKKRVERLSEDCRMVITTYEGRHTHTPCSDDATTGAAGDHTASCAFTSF

The other results are listed elsewhere or left out.

The target in this test is OsWRKY34 (Oryza sativa, UniProt Q0JBA9 1-250). Briefly: protein-binding microarray (RPBM); PBS, 2% BSA, 51.3 ng/ul salmon testes DNA, 50 uM zinc acetate, 200 nM TF, 25 C, 1 h; high values mean tight binding. The following applies: protein: recombinant; tags: N-terminal polyhistidine and DsRed monomer fusion (pET32a); label: CyDye5-dUTP incorporated in the synthesized complementary strand; 3' TTTTT single-stranded linker to array surface; dsDNA, one strand shown. In short, it runs like this:
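Ni–NTA purification followed expression in E. coli BL21-CodonPlus of transcription factors fused N-terminally to a polyhistidine tag and DsRed. At 200 nM in PBS with 2% BSA, salmon testes DNA and 50 µM zinc acetate, the protein was incubated for 1 h at 25 °C with a custom Agilent array that had been primer-extended with Cy5-dUTP and blocked with 2% BSA. After washing, the array was read on an Axon 4000B scanner. The binding signal is per-feature fluorescence intensity in arbitrary units.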
Regarding “GCGTCGGATTTCATGCTCTCATGCCTCCACTTGGAACGCACGGAGTCACCTAGTGCAG”, the binding signal is 11600 fluorescence intensity (a.u.).
With “ACCGCACCACCACCACCACCACCACCACCGCAACCGAACACGGAGTCACCTAGTGCAG” the figure was 8220 fluorescence intensity (a.u.); with “ACGAAAACCACAACTATCACACAACACCATCAGCTAATCTCGGAGTCACCTAGTGCAG”, 8830 fluorescence intensity (a.u.); with “TTGGATTGCAGTGGGGCGGACGGCGGTGGGCGGGGCTTCTCGGAGTCACCTAGTGCAG”, 27600 fluorescence intensity (a.u.).
With “TCATATCTTCTCTTCCATCTTATCCTCTCCCCACCACTCACGGAGTCACCTAGTGCAG” the figure was 8840 fluorescence intensity (a.u.).
With “TTTTCTTTCTTTTTCTTTTTTTTTATCGTTTTGTTCTTCTCGGAGTCACCTAGTGCAG” the figure was 10500 fluorescence intensity (a.u.); with “AACGCAACCTGATTAGTTTAAGCCACCGGAATGCTGTTCGCGGAGTCACCTAGTGCAG”, 8440 fluorescence intensity (a.u.).
For the sequence “AGCGGAAATCTATTCAACTCTGATCTTGTTTTTCTTCCCGCGGAGTCACCTAGTGCAG”, the binding signal was 9330 fluorescence intensity (a.u.).
With “GCTGCCTCATTTGCACTTGGTCAATTTGCTGAACACTTGCCGGAGTCACCTAGTGCAG” the figure was 8820 fluorescence intensity (a.u.); with “CCGCCCGAATTTCACTCCTTCCCTATATACGCAAGCTTCCCGGAGTCACCTAGTGCAG”, 8970 fluorescence intensity (a.u.).
The figure for “GATTACCTGATTACCTGATTACCTGTGTCACTGACAACTCCGGAGTCACCTAGTGCAG” is 8310 fluorescence intensity (a.u.); for “CTTAGATGATGCTTGTTTTTCTTTCTTTTGGTTTGTTTACCGGAGTCACCTAGTGCAG” it is 8950 fluorescence intensity (a.u.).
With “ATCGTCGTCTCGGTCGTCGTTGTCGTCGTCCCGGTCTTCGCGGAGTCACCTAGTGCAG” the figure was 10500 fluorescence intensity (a.u.); with “CGTTGTCGCCACCACCACCGCCGCCGTCGCCACAACTCCGCGGAGTCACCTAGTGCAG”, 20500 fluorescence intensity (a.u.).
Regarding “TATATTAGACGTTCGACCTGTTTAGTTGTTGTTTAAGCTCCGGAGTCACCTAGTGCAG”, the binding signal is 9440 fluorescence intensity (a.u.).
The figure for “GCATCCCTGCATTACAAAACCATTCCGTGTCTGTCTACTACGGAGTCACCTAGTGCAG” is 8290 fluorescence intensity (a.u.); for “CCGTCCAAAACTACCCATCTGCCACGTGGCACCCGCCCATCGGAGTCACCTAGTGCAG” it is 8510 fluorescence intensity (a.u.).
With “AAAATTAACAATAATCCTGCCCTGTCTGGCCACTTCCTGTCGGAGTCACCTAGTGCAG” the figure was 8280 fluorescence intensity (a.u.); with “ATGTGCAGGTGGTGGTGGGGCTTGCTTATCAGCTAAAACCCGGAGTCACCTAGTGCAG”, 10000 fluorescence intensity (a.u.); with “ACTGCTATCTTTGTCCCATAATATTTGTATTTTTAGGATTCGGAGTCACCTAGTGCAG”, 8030 fluorescence intensity (a.u.).
The figure for “ATATATTTTCATATGTTATAATTTTGTTGCTACAAACTCTCGGAGTCACCTAGTGCAG” is 8040 fluorescence intensity (a.u.); for “GAAATTCTCGTAATTATGAATCATCCCGTACTATTCGCAGCGGAGTCACCTAGTGCAG” it is 8280 fluorescence intensity (a.u.); for “TGTTCATCCGTCGTCAGACCTGTTACCAGATCTGGACTTCCGGAGTCACCTAGTGCAG” it is 9690 fluorescence intensity (a.u.).
“CCACCGGCACATGTCCTCATTCTCGCGCCATGGTCCCTGACGGAGTCACCTAGTGCAG”: the binding signal was 10500 fluorescence intensity (a.u.).
With “GGGTAAGTGATCAATGTTTTTCTTTACCGCAGCTTGTTTTCGGAGTCACCTAGTGCAG” the figure was 11900 fluorescence intensity (a.u.).
With “ATGCTCAATGCCACGACCACATCACGCCAGCCACCCACTGCGGAGTCACCTAGTGCAG” the figure was 8180 fluorescence intensity (a.u.).
With “TTGACCCTATCTCCTCTTCGCCGCTTTATCCTGCCCATTTCGGAGTCACCTAGTGCAG” the figure was 11700 fluorescence intensity (a.u.); with “CATTGTGTTGGATTGCACTGTTTTTATTTTCAAGATGTAACGGAGTCACCTAGTGCAG”, 10300 fluorescence intensity (a.u.).
As to “GTTCTGTTCTAATTCTCACGCTAGTTCATGTGCCACACCTCGGAGTCACCTAGTGCAG”, the binding signal was 11700 fluorescence intensity (a.u.).
With “CCCTCTCATTATTTATTTCCTCGTATCTCCAGCCGCACACCGGAGTCACCTAGTGCAG” the figure was 8130 fluorescence intensity (a.u.); with “GACTCGTTAAGTTCTTATATTGTGGAATCCTGTCTTTTAACGGAGTCACCTAGTGCAG”, 8740 fluorescence intensity (a.u.).
The figure for “CATCTGTATTTCCAAATTTGTATATTTACCATTTGTGTTTCGGAGTCACCTAGTGCAG” is 9320 fluorescence intensity (a.u.); for “TGACGACGCTTATCTCGTTATCTCGTTTGTTTGTCATATGCGGAGTCACCTAGTGCAG” it is 12500 fluorescence intensity (a.u.); for “AGCGGTGTGTTGAGATTGGTAGCTGAAAGGCCTCTTCTTCCGGAGTCACCTAGTGCAG” it is 8320 fluorescence intensity (a.u.).
With “ACCACTACGCCTCCACCTCCACACCTCACCTCCTCCACCTCGGAGTCACCTAGTGCAG” the figure was 10400 fluorescence intensity (a.u.); with “GGGGCCCACATGTCATTCTCACCGACGCCCCATCCCTTCTCGGAGTCACCTAGTGCAG”, 8110 fluorescence intensity (a.u.); with “CTGTAAACATATCCTCATTTTGGTTCGTCTATCAGTCACGCGGAGTCACCTAGTGCAG”, 9680 fluorescence intensity (a.u.).
Turning to “ATGCCTTGTACTTCCCACCTAACCAACTGTGCAGAAAGATCGGAGTCACCTAGTGCAG”, the binding signal was 8510 fluorescence intensity (a.u.).
The figure for “CTATCGTTATTTACACGTGATTTAAATAGTTATGAATTTTCGGAGTCACCTAGTGCAG” is 8140 fluorescence intensity (a.u.).
The figure for “AAGTAATCGGCGCCGTCTTTTCTTCCTTCACGCCAGCATCCGGAGTCACCTAGTGCAG” is 8620 fluorescence intensity (a.u.); for “TTTGATTTTAATTCTAGGGGTAGTATATTTGCCGGCTTTGCGGAGTCACCTAGTGCAG” it is 8350 fluorescence intensity (a.u.); for “ATGGTTTTCCGCATCCAACTTTGATCATCCATCTTATTTACGGAGTCACCTAGTGCAG” it is 12800 fluorescence intensity (a.u.).
